The numbers were not newly measured in patent US5712148A (Synaptic Pharmaceutical Corporation, priority 1995, dated 1998), which cites them from elsewhere.

This data set has as its system dog betaine/GABA transporter. The settings on record: read-out: KM for GABA (dog); expressed in oocytes; 30 minutes at 25° C. (Yamauchi et al., 1992); cited from earlier work.

SMILES strings stand for the structures.

For the compound `NCCCC(=O)O` [GABA, γ-aminobutyric acid], the Michaelis constant (Km) was 93 µM.
